Test results from patent US20060128681A1, “Novel rho inhibitors” (priority 2002, published 2006).

Amino acid sequences for entries named in this document (tags omitted).
UniProt P0AG30, whole entry: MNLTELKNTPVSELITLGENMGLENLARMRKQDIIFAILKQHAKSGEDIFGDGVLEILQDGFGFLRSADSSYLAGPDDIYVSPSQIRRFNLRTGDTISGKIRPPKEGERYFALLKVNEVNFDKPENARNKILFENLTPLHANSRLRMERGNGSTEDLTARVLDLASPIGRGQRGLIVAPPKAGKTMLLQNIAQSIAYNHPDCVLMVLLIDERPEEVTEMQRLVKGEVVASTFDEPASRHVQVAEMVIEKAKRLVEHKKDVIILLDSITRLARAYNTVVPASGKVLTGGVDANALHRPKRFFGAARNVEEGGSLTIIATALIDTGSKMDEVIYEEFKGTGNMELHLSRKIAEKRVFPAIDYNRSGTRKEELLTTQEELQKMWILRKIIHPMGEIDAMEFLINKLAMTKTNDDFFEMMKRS

Target: rho transcription termination factor (Escherichia coli, UniProt P0AG30)
Test: Rho poly(C)-dependent ATPase assay, inhibition by metal chelates and bicyclomycin
Format: biochemical, E. coli
Conditions: tested form: Cd (CdCl2, 1:1)

`O[C@H](CS)[C@H](O)CS` (relative stereo) was tested. Which “effect on rho poly(C)-dependent ATP hydrolysis” value ((DL)DTT 0.1-0.3 mM alone or equimolar with metal chloride, in presence of MgCl2) did it give?
The value was “inhibited”.

What about the IC50 (read-out: I50, rho poly(C)-dependent ATPase activity, metal chloride + equimolar (DL)DTT (1:1), 1 mM MgCl2, FIG. 1) of the same molecule?
Its IC50 is 60 µM.

Structures were worked out from names or drawings and are uncertain.
